Data published in patent US20090171621A1, “MEASURING THE DISTANCE BETWEEN DEVICES” (KONINKLIJKE PHILIPS ELECTRONICS, N.V., priority 2004, published 2009).
At least one structure is not confirmed: it was looked up by name or label, or the drawing left a doubt.

Assays:
ISA brown hens = assay: Egg cholesterol analysis (yolk weight, yolk cholesterol by gas chromatography) of hens fed supplemented diet; type: in vivo; conditions: compactin less than 0.03% vs atorvastatin of previous art
Experimental: Healthy ISA brown hens, 45-week old, were assigned randomly to each dietary group (control group, 8 birds; experimental group, 6 birds each). Each bird was placed in an individual cage in an environmentally controlled room (25° C., 50% relative humidity, 16L:8D). The hens were allowed for 2 weeks in which to adapt to the feed with no additives and the housing. Control birds were fed a commercial diet based on corn and soybean meal (Table 1), while birds in experimental groups were fed diets supplemented with 0.003 or 0.03% of compactin (Sigma Aldrich Korea) for 6 weeks. Feed and water were provided ad libitum throughout the experiment. Feed consumption, egg production and egg weight were recorded daily. Egg production was expressed as percent hen day production; (100×number of eggs laid)/(number of hens×days).
For egg cholesterol analysis, eggs from each bird were collected and egg yolk was separated, weighed, and sampled for analysis. Lipids from eggs were extracted by the method of Folch et al. (1957). Briefly, one gram of sample was saponified with 3 mL of 33% KOH and incubated with 30 mL of 95% methanol in a 65° C. water bath for 90 min. […] Cholesterol content was determined by a gas chromatography (Shimadzu, Japan) using column VB-1 (30 m×0.25 mm×0.25 μm, VICI Inc.) with a split ratio of 100:1 and nitrogen as carrier gas for a column flow rate of 0.54 mL/min. […]

egg-laying chickens = conditions: 0.03-0.06% fed for 5 weeks, previous art; cited from earlier work

SMILES	Effectiveness in producing low cholesterol eggs relative to atorvastatin (ISA brown hens)	Cholesterol-lowering effect in eggs (egg-laying chickens)
CC[C@H](C)C(=O)O[C@H]1CCC=C2C=C[C@H](C)[C@H](CC[C@@H]3C[C@@H](O)CC(=O)O3)[C@H]21 [Compactin, compactin]	2 or 3 times	–
CCC(C)(C)C(=O)O[C@H]1C[C@@H](C)C=C2C=C[C@H](C)[C@H](CC[C@@H]3C[C@@H](O)CC(=O)O3)[C@H]21 [simvastatin]	–	satisfactory
